Data from patent US20210324028A1.
Changes are numbered by the printed parent chain. Names and notes keep the numbering of the source. These are yes or no findings as the source states them, for the method shown. Some entries that bind do so weakly or less than the wild type.

The chains behind the UniProt entries cited, without tags or fusion partners. Residues count along the entry.
UniProt Q13261, residues 31-205: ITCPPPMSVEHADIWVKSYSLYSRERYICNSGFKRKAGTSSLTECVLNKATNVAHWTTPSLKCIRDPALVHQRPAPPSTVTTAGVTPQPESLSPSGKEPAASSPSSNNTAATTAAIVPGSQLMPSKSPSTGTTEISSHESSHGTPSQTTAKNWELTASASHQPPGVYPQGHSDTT

T1: human IL-2Rβ (human) (UniProt P14784)
T1 sequence (looked up): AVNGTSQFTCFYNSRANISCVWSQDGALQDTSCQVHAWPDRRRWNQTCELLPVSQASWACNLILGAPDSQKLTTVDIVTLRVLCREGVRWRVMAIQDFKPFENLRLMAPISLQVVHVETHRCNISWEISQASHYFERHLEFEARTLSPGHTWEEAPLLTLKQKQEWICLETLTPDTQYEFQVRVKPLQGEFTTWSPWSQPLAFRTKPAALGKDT

B1: hIL-15 V49R/H32Y (ligand)
chain: NWVNVISDLKKIEDLIQSMHIDATLYTESDVYPSCKVTAMKCFLLELQRISLESGDASIHDTVENLIILANNSLSSNGNVTESGCKECEELEEKNIKEFLQSFVHIVQMFINTGGGGSGHHHHHHHHGGGLNDIFEAQKIEWHE
B2: hIL-15 V49R/E64R (ligand)
chain: B1 chain with Y32H, E64R
B3: hIL-15 V49R/E64G (ligand)
chain: B1 chain with Y32H, E64G
B4: hIL-15 V49R/L69G (ligand)
chain: B1 chain with Y32H, L69G
B5: hIL-15 V49R/N1L (ligand)
chain: B1 chain with N1L, Y32H
B6: hIL-15 V49R/N1M (ligand)
chain: B1 chain with N1M, Y32H
B7: hIL-15 V49R/N1F (ligand)
chain: B1 chain with N1F, Y32H
B8: hIL-15 V49R/N1Y (ligand)
chain: B1 chain with N1Y, Y32H
B9: hIL-15 V49R/N1V (ligand)
chain: B1 chain with N1V, Y32H

biological target: human IL-15Rα (human) (UniProt Q13261); experiment: SPR

binding, binds:
B1
B2
B3
B4
B5
B6
B7
B8
B9

biological target: T1, human IL-2Rβ (human); experiment: SPR

binding, binds:
B1
B2
B3
B4
B5
B6
B7
B8
B9
